# Results published in patent US20170183637A1, “SPLIT RECOMBINANT LUCIFERASE, AND ANALYSIS METHOD USING THEREOF” (OLYMPUS CORPORATION, priority 2014, published 2017).
# For at least one compound, name, drawing or mass did not settle the structure.
# Assays:
# [1] = tested on: c-fos promoter activity of neuronal cells; test: Imaging of changes in c-fos promoter activity by forskolin stimulation in rat brain slice culture (Experiment 6); type: cell-based; conditions: forskolin 5 μM; neuronal cells of rat hippocampus slice with pSYN/OKI359 plus pfos/OKI-N; FIG. 9
# c-fos promoter = test: Imaging of changes in c-fos promoter activity by forskolin stimulation in HEK293 cells (Experiment 5); type: cell-based, human; conditions: forskolin 5 μM; HEK293 cells with pCMV/OKI359, pCMV/KUME359 or pCMV/SfRE352 plus pfos/OKI-N; FIG. 7
structure (smiles),measurement,setting,value
C=C[C@@]1(C)CC(=O)[C@]2(O)[C@@]3(C)[C@@H](O)CCC(C)(C)[C@@H]3[C@H](O)[C@H](OC(C)=O)[C@@]2(C)O1 [forskolin],c-fos promoter activity (luminescence intensity per cell) after stimulation,[1],"elevated levels of c-fos promoter activity immediately after forskolin stimulation, while the others about 6 h after forskolin stimulation"
same,c-fos promoter activity (luminescence intensity per cell) after stimulation,c-fos promoter,elevated levels of c-fos promoter activity immediately after forskolin stimulation
